Test results published in the supplement of paper PMC10849652.
This is one part of the list.

By UniProt entry, the sequences of proteins in these tests, tags left out. Where a name states a change or a piece, a line headed by the entry shows the natural chain unless it says otherwise.
UniProt O00567: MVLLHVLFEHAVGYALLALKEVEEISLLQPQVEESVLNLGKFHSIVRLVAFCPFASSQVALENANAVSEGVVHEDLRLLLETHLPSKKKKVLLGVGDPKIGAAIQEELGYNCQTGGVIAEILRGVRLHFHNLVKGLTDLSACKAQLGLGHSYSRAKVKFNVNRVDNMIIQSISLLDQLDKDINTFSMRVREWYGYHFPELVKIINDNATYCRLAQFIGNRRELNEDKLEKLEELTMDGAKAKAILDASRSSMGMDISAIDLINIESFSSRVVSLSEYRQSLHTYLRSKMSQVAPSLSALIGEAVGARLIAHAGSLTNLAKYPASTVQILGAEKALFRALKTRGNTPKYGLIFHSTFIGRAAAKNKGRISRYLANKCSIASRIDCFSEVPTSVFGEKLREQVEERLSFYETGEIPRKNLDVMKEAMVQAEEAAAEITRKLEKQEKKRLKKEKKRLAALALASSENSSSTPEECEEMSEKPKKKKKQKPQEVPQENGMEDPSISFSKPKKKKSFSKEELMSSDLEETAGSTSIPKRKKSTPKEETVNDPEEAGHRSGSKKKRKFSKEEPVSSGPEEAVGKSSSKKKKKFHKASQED
UniProt O43847: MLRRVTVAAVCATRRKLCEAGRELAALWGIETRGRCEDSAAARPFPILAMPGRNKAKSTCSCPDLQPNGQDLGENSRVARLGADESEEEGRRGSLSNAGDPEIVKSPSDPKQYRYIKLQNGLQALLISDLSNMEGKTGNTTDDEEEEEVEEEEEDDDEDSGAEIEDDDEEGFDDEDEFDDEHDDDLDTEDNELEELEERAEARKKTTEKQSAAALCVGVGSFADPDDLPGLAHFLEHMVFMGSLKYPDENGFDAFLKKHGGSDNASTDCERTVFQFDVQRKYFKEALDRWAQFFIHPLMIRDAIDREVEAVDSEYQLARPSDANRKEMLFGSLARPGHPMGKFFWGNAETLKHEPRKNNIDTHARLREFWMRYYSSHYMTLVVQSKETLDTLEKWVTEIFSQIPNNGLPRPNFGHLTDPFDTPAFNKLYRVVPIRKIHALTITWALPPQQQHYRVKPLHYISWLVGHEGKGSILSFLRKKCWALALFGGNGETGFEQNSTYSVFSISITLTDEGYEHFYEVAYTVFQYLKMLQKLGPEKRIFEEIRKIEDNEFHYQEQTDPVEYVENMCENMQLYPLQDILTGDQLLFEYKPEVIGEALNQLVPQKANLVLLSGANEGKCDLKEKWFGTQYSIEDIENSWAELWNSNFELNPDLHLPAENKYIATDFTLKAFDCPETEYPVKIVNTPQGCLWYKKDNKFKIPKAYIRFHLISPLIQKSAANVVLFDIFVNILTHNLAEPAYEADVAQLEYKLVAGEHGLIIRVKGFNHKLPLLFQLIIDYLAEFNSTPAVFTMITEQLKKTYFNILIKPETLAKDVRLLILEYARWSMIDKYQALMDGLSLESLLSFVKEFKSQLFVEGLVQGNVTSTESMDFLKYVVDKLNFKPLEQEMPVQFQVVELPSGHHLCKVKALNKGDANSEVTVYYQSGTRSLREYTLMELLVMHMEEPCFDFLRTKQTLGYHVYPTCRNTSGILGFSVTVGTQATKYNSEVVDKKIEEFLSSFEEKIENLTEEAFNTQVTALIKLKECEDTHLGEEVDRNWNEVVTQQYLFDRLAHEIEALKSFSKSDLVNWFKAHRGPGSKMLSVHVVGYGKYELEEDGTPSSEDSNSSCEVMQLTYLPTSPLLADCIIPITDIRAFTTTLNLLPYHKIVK
UniProt Q96D46: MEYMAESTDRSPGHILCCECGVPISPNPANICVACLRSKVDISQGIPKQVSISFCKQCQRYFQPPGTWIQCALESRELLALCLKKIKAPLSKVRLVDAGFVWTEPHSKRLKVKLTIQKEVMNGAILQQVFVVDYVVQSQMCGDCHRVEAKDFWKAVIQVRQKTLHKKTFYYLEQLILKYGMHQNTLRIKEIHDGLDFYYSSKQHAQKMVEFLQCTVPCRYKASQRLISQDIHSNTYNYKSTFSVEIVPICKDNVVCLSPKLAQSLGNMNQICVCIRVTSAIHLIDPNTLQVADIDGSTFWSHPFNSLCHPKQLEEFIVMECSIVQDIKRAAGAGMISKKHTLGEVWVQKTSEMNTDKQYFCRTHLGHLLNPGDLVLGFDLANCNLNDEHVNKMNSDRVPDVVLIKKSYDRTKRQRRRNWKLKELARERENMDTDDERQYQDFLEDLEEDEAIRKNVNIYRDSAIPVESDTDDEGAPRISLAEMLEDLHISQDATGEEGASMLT
UniProt Q5TFE4: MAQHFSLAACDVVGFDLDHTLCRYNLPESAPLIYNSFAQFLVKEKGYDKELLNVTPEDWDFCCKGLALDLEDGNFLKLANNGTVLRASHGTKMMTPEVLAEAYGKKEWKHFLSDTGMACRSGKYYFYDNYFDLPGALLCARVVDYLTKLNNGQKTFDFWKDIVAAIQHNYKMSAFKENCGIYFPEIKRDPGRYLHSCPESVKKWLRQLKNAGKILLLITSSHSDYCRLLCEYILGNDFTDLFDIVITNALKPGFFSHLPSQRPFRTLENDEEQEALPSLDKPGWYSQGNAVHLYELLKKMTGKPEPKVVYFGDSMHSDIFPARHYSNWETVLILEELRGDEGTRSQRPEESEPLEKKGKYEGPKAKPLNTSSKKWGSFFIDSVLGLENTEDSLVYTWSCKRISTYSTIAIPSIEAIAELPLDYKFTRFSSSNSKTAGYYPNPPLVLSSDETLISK
UniProt P06748, whole entry, looked up: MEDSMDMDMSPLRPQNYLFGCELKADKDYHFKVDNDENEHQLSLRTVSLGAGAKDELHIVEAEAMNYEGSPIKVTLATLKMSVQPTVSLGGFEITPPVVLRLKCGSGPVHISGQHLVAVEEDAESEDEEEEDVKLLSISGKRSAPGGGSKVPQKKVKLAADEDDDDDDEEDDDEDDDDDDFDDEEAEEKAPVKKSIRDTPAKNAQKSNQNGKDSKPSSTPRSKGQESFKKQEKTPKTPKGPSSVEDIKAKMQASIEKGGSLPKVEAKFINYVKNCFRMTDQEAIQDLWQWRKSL
UniProt P24468: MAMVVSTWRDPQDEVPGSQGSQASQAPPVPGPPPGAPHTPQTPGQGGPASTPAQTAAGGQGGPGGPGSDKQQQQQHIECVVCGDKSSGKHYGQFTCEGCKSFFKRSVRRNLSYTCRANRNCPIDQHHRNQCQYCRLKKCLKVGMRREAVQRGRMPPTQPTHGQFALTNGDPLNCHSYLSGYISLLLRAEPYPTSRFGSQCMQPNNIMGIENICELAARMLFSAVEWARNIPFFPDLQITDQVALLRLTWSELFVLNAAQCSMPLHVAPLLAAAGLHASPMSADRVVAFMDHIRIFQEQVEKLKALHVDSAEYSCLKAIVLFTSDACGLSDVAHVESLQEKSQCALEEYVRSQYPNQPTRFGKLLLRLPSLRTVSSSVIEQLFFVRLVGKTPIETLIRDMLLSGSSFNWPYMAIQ
UniProt Q16656: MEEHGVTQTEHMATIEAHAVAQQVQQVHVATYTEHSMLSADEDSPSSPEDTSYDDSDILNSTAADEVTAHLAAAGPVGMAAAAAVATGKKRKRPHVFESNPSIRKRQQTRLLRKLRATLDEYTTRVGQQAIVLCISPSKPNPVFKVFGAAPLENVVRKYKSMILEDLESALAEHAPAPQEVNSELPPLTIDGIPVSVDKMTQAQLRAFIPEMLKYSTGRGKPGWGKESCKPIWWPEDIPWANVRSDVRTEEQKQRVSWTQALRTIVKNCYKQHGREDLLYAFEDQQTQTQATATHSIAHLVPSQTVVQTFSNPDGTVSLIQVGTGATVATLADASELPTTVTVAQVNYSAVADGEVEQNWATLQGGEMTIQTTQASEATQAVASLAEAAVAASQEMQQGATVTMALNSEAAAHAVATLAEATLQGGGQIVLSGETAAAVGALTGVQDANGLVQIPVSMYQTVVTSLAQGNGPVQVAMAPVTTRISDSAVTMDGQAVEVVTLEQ
UniProt P53370: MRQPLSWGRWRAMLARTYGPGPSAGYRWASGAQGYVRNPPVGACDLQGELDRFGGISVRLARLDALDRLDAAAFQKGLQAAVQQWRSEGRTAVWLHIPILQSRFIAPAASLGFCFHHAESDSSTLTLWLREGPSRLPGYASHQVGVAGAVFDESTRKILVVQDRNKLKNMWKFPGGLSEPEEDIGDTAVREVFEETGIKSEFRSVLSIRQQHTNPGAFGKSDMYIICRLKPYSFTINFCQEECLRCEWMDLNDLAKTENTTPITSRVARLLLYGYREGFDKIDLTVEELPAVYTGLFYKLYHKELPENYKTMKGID
UniProt Q9BV86: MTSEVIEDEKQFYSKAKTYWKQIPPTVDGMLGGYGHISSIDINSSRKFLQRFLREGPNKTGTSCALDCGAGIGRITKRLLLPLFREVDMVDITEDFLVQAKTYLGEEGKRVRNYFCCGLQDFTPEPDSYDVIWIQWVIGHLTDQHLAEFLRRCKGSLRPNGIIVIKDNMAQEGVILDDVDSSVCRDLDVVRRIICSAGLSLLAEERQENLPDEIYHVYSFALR
UniProt P49116: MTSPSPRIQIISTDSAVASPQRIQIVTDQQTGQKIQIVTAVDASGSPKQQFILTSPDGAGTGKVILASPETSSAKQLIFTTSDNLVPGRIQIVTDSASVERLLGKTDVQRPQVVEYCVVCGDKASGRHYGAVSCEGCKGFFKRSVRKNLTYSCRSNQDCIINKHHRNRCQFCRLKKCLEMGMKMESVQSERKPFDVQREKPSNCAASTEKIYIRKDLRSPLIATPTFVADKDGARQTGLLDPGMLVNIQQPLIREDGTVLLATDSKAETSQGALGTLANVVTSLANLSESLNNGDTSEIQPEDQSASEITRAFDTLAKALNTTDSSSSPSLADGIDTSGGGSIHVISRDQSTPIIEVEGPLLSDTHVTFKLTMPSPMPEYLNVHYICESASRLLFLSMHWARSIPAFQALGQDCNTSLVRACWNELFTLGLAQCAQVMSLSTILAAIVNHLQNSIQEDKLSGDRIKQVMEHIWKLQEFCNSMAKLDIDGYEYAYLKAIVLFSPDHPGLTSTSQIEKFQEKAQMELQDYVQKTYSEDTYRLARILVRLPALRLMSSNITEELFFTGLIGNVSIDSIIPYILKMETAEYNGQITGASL
UniProt P49790, whole entry, looked up: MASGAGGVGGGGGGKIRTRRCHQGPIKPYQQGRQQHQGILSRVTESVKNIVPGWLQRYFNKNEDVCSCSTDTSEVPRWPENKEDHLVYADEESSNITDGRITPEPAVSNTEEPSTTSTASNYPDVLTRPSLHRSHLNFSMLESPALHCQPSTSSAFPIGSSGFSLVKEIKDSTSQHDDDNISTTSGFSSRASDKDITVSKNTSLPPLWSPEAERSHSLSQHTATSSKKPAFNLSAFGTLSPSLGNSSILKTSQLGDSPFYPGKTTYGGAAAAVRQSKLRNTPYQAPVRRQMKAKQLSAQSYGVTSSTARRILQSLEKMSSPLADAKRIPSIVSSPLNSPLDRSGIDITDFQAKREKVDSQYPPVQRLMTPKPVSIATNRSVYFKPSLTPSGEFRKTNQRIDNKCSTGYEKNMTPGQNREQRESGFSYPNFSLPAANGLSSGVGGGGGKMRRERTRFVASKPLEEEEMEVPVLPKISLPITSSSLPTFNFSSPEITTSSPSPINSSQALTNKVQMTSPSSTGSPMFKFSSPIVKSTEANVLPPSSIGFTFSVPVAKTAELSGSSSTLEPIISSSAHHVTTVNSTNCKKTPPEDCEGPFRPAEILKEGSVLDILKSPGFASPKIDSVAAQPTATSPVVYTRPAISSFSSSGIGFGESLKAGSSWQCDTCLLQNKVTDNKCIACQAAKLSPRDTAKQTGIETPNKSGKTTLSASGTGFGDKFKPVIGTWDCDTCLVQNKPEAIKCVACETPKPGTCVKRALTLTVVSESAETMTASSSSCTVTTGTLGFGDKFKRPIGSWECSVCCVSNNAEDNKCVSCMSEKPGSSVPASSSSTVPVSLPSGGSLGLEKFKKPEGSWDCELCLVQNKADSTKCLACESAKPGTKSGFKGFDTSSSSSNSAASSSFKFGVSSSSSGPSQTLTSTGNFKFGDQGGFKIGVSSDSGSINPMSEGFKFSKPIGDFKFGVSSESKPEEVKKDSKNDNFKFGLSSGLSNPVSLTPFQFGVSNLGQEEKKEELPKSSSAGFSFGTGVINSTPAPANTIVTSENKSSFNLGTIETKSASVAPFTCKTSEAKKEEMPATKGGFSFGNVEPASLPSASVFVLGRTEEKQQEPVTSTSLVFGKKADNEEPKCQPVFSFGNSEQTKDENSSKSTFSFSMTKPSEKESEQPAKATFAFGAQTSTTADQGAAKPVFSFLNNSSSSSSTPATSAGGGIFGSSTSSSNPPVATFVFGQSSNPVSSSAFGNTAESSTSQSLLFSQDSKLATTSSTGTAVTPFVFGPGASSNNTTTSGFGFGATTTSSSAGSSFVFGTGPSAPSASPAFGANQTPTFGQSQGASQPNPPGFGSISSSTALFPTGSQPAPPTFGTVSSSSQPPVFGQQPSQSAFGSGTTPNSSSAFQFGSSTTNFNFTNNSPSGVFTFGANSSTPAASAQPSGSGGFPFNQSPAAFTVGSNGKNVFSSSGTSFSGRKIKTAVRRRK

Legend:
Assay in all cases: log2 fold change, soluble protein after heating vs DMSO (PISA); higher = thermal stabilisation; K562 lysate, 10 uM; active = over 0.2 and 3.5 SD of the protein, either way, in both replicates (recomputed)
erlotinib = compound: C#Cc1cccc(Nc2ncnc3cc(OCCOC)c(OCCOC)cc23)c1 [erlotinib]
Method in brief: (§1)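 K562 pellets were dounce-homogenised in PBS pH 7.4 with 1 mM MgCl2, and the crude extract at 1 mg/mL protein was treated with 10 μM compound for 30 min. Aliquots were heated for 3 min across 48°C-58°C, pooled, and brought to 0.5% NP-40 at 4°C; soluble protein was the supernatant after 21,000xg for 90 min. Soluble protein was quantified by TMTpro 16plex LC-MS/MS with channel sums equalised, and reported as log2 fold change in thermal stability against DMSO controls, with values from duplicates.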

[1] = compound: C/C(=N\NC(=O)C1=CC(=CC=C1)S(=O)(=O)N2CCOCC2)/C3=C(C=CC(=C3)Cl)O
Method in brief: as §1

[2] = compound: C1=CC(=CC=C1C2=NC3=C(N2)C=C(C=C3)C(=O)N)OC4=CC=C(C=C4)Cl
Method in brief: as §1

[3] = compound: C1=CC2=C(C=CC(=C2)/C=C\3/C(=O)NC(=NCC4=CC=CS4)S3)N=C1
Method in brief: as §1

[4] = compound: C1=CC2=NC=CN=C2C=C1/C=C/3\C(=O)NC(=O)S3
Method in brief: as §1

[5] = compound: C1=CC=C(C=C1)C2=NC(=C(N2)C3=CC=NC=C3)C4=CC(=C(C=C4)Cl)O
Method in brief: as §1

[6] = compound: C1=CC=C2C(=C1)C3=NNC4=CC=CC(=C43)C2=O
Method in brief: as §1

[7] = compound: C1CCN(C1)C(=O)NC2=CC=CC(=C2)NC3=NC=C(C(=N3)NCCC4=CN=CN4)Br
Method in brief: as §1

[8] = compound: C1CN(CCC1(CC2=CC=C(C=C2)Cl)N)C3=NC=NC4=C3C=CN4
Method in brief: as §1

IRAK-1-4 Inhibitor I = compound: C1COCCN1CCN2C3=CC=CC=C3N=C2NC(=O)C4=CC(=CC=C4)[N+](=O)[O-] [IRAK-1-4 Inhibitor I]
Method in brief: as §1

ibrutinib = compound: C=CC(=O)N1CCC[C@@H](n2nc(-c3ccc(Oc4ccccc4)cc3)c3c(N)ncnc32)C1 [ibrutinib]
Method in brief: as §1

[9] = compound: CC(=O)c1cnc2ccc(-c3cc(Cl)c(O)c(Cl)c3)nc2c1N[C@H]1CC[C@H](CN(C)C)CC1
Method in brief: as §1

ralimetinib = compound: CC(C)(C)Cn1c(N)nc2ccc(-c3[nH]c(C(C)(C)C)nc3-c3ccc(F)cc3)nc21 [ralimetinib]
Method in brief: as §1

[10] = compound: CC(C)(O)CC(=O)NCCn1ccc2ncnc(Nc3ccc(Oc4cccc(C(F)(F)F)c4)c(Cl)c3)c21
Method in brief: as §1

[11] = compound: CC(C)C1=C2N=C(C=C(N2N=C1)NCC3=CC=CC=C3)NCCCCCCN
Method in brief: as §1

[12] = compound: CC1=C(C(CC(=O)N1)C2=CC=C(C=C2)C(F)(F)F)C(=O)NC3=C(C=C4C(=C3)C=NN4)F
Method in brief: as §1

[13] = compound: CC1=C(C2=C(C=C1)C(=O)C3=CC=CC=C3N2CCCN)C
Method in brief: as §1

[14] = compound: CC1=C(C=C(C=C1)NC(=O)C2=CC(=CC=C2)C(C)(C)C#N)NC3=CC4=C(C=C3)N=CN(C4=O)C
Method in brief: as §1

[15] = compound: CC1=C(C=C(C=C1)NC(=O)C2=CC(=CC=C2)N(C)C)NC(=O)C3=CC=C(C=C3)O
Method in brief: as §1

[16] = compound: CC1=CC=C(C=C1)SC2=C3C=C(SC3=CN=C2)C(=O)N
Method in brief: as §1

Measured: log2 fold change

NOP56 (UniProt O00567)
inactive: erlotinib 0.016 | [1] 0.024 | [2] -0.023 | [3] -0.014 | [4] 0.01 | [5] 0.045 | [6] 0.054 | [7] 0.009 | [8] -0.052 | IRAK-1-4 Inhibitor I -0.037 | ibrutinib 0.043 | [9] 0.017 | ralimetinib 0.018 | [10] -0.013 | [11] -0.009 | [12] -0.009 | [13] -0.026 | [14] 0.006 | [15] -0.004 | [16] 0.022

NRDC isoform 2 (UniProt O43847)
inactive: erlotinib 0.002 | [1] 0.011 | [2] 0.002 | [3] -0.014 | [4] 0.005 | [5] -0.001 | [6] 0.014 | [7] 0.006 | [8] -0.003 | IRAK-1-4 Inhibitor I 0.008 | ibrutinib -0.009 | [9] 0.001 | ralimetinib 0.012 | [10] -0.004 | [11] -0.012 | [12] 0.002 | [13] -0.003 | [14] 0.004 | [15] -0.006 | [16] 0.009

NMD3 (UniProt Q96D46)
inactive: erlotinib 0.013 | [1] 0.034 | [2] 0.001 | [3] -0.017 | [4] 0.015 | [5] 0.013 | [6] -0.007 | [7] -0.005 | [8] 0 | IRAK-1-4 Inhibitor I -0.015 | ibrutinib 0.014 | [9] -0.009 | ralimetinib -0.001 | [10] 0.01 | [11] 0.001 | [12] -0.024 | [13] -0.014 | [14] 0.015 | [15] -0.009 | [16] -0.004

NT5DC1 (UniProt Q5TFE4)
inactive: erlotinib -0.014 | [1] 0.009 | [2] 0.013 | [3] 0.036 | [4] -0.013 | [5] -0.017 | [6] 0.025 | [7] -0.031 | [8] 0 | IRAK-1-4 Inhibitor I 0.004 | ibrutinib 0.03 | [9] 0.022 | ralimetinib 0.025 | [10] -0.032 | [11] -0.019 | [12] 0.027 | [13] 0.004 | [14] 0.069 | [15] 0.015 | [16] -0.011

NPM1 (UniProt P06748)
inactive: erlotinib -0.044 | [1] 0.002 | [2] -0.028 | [3] 0.003 | [4] -0.021 | [5] 0.001 | [6] 0.064 | [7] 0.045 | [8] -0.022 | IRAK-1-4 Inhibitor I -0.028 | ibrutinib 0.006 | [9] 0.012 | ralimetinib 0.001 | [10] -0.014 | [11] 0.017 | [12] -0.027 | [13] 0.007 | [14] -0.02 | [15] -0.015 | [16] 0

NR2F2 (UniProt P24468)
inactive: erlotinib -0.007 | [2] 0 | [4] -0.192 | [5] 0.076 | IRAK-1-4 Inhibitor I 0.048 | ibrutinib 0.007 | [9] -0.09 | ralimetinib -0.006 | [10] -0.069 | [11] -0.067 | [12] 0.097 | [13] 0.032 | [14] -0.031 | [15] 0.065 | [16] -0.042

NRF1 isoform 4 (UniProt Q16656)
inactive: erlotinib -0.011 | [1] -0.001 | [2] -0.04 | [3] -0.027 | [4] -0.032 | [5] -0.004 | [6] -0.007 | [7] 0.01 | [8] -0.019 | IRAK-1-4 Inhibitor I -0.007 | ibrutinib -0.001 | [9] 0.021 | ralimetinib -0.028 | [10] -0.016 | [11] -0.009 | [12] -0.047 | [13] -0.005 | [14] 0.023 | [15] 0.044 | [16] -0.025

NPRL3 (UniProt Q12980)
inactive: erlotinib 0.043 | [1] -0.241 | [2] -0.096 | [3] -0.202 | [5] 0.169 | [6] -0.033 | IRAK-1-4 Inhibitor I -0.093 | ralimetinib -0.166 | [10] -0.081 | [11] 0.05 | [12] 0.007 | [14] 0.057 | [15] 0.036

NUDT6 (UniProt P53370)
active: [3] -0.518
inactive: erlotinib -0.01 | [1] 0.113 | [2] -0.02 | [5] -0.008 | [6] 0.111 | [7] -0.06 | [8] 0.06 | IRAK-1-4 Inhibitor I 0.032 | ralimetinib 0.065 | [10] -0.033 | [11] 0.054 | [13] 0.169 | [14] 0.011 | [15] -0.042

NSFL1C isoform 5 (UniProt Q9UNZ2)
inactive: erlotinib -0.017 | [1] 0.01 | [2] 0.05 | [3] 0.026 | [4] -0.036 | [5] 0 | [6] 0.013 | [7] 0.004 | [8] -0.017 | IRAK-1-4 Inhibitor I -0.014 | ibrutinib 0.032 | [9] 0 | ralimetinib -0.031 | [10] 0.027 | [11] 0.03 | [12] -0.014 | [13] 0.004 | [14] -0.015 | [15] -0.013 | [16] -0.009

NTMT1 (UniProt Q9BV86)
inactive: erlotinib 0.002 | [1] 0.031 | [2] 0.02 | [3] 0.055 | [4] -0.001 | [5] -0.002 | [6] 0.014 | [7] 0.021 | [8] 0.042 | IRAK-1-4 Inhibitor I -0.033 | ibrutinib -0.025 | [9] 0.022 | ralimetinib -0.025 | [10] -0.018 | [11] 0 | [12] -0.005 | [13] -0.01 | [14] -0.008 | [15] 0.047 | [16] 0.01

NR2C2 isoform 2 (UniProt P49116)
inactive: erlotinib 0.006 | [1] 0.135 | [2] -0.014 | [3] 0.134 | [4] -0.012 | [5] 0.064 | [6] -0.035 | [7] 0.061 | [8] -0.041 | IRAK-1-4 Inhibitor I -0.019 | ibrutinib 0.069 | [9] -0.081 | ralimetinib 0.014 | [10] 0 | [11] -0.03 | [13] -0.064 | [14] 0.044 | [15] -0.019 | [16] -0.086

NUP153 (UniProt P49790)
inactive: erlotinib 0.002 | [1] 0.016 | [2] 0.073 | [3] -0.011 | [4] -0.035 | [5] 0.011 | [6] -0.019 | [7] -0.013 | [8] 0.01 | IRAK-1-4 Inhibitor I -0.003 | ibrutinib 0.007 | [9] -0.016 | ralimetinib -0.002 | [10] -0.032 | [11] 0 | [12] 0.04 | [13] -0.007 | [14] 0.002 | [15] 0.003 | [16] -0.002
